Experimental data: patent US5674840A (Gruppo Lepetit SpA, priority 1993, dated 1997)

Test: general procedure: solution-phase peptide synthesis; N-hydroxysuccinimide active esters; N-hydroxybenzotriazole hydrate
Details: coupling step, trifluoroacetate, hydrochloride, free base

Substance: (L-phenylalanyl)^3 -[N^α,N^δ -di-(t-BOC)-D-lysyl]^15 -ATDH methyl ester
- crude HPLC purity: titre about 45%
